{
  "source": "the supplement of paper PMC9671908",
  "key": {"MIA PaCa-2 parental": {"test_system": "MIA PaCa-2 parental", "assay": "parental cell viability relative to untreated parental control; higher = more surviving cells", "details": "treatment time: 9 days"}, "MIA PaCa-2 persister": {"test_system": "MIA PaCa-2 persister", "assay": "persister cell viability relative to untreated persister control; higher = more surviving persister cells", "details": "treatment time: 9 days; cell state: persister (100 nM gemcitabine + 100 nM Torin1)"}},
  "note": "Counter-ions that a name gives are not always drawn. The list shows a part of the results. Single values are uncertain, as repeats are few or missing.",
  "data": [
    {"smiles": "N[C@@H]1CCCN(c2c(Br)cnc3[nH]cc(NC(=O)C4CC4)c23)C1", "note": "(inhibitor concentration: 100nM)", "values": [
      {"measurement": "parental cell viability", "setting": "MIA PaCa-2 parental", "value": 60, "unit": "%"},
      {"measurement": "persister cell viability", "setting": "MIA PaCa-2 persister", "value": 25, "unit": "%"}
    ]},
    {"smiles": "O=C1C(Cl)=C(NCCN2CCOCC2)C(=O)c2ncccc21", "note": "(inhibitor concentration: 300nM)", "values": [
      {"measurement": "parental cell viability", "setting": "MIA PaCa-2 parental", "value": 102, "unit": "%"},
      {"measurement": "persister cell viability", "setting": "MIA PaCa-2 persister", "value": 33, "unit": "%"}
    ]},
    {"smiles": "CNC(=O)c1cc(Oc2ccc(NC(=O)Nc3ccc(Cl)c(C(F)(F)F)c3)cc2)ccn1", "note": "[Sorafenib] (inhibitor concentration: 10µM)", "values": [
      {"measurement": "parental cell viability", "setting": "MIA PaCa-2 parental", "value": 19, "unit": "%"},
      {"measurement": "persister cell viability", "setting": "MIA PaCa-2 persister", "value": 62, "unit": "%"}
    ]},
    {"smiles": "CCN1CCN(CC(=O)Nc2ccc(-c3cccc4c(=O)cc(N5CCOCC5)oc34)c3sc4ccccc4c23)CC1", "note": "(inhibitor concentration: 1µM)", "values": [
      {"measurement": "parental cell viability", "setting": "MIA PaCa-2 parental", "value": 81.5, "unit": "%"},
      {"measurement": "persister cell viability", "setting": "MIA PaCa-2 persister", "value": 110, "unit": "%"}
    ]},
    {"smiles": "CS(=O)(=O)c1ccc(-c2cnc(N)c(C(=O)Nc3ccccc3)n2)cc1", "note": "(inhibitor concentration: 300nM)", "values": [
      {"measurement": "parental cell viability", "setting": "MIA PaCa-2 parental", "value": 99.5, "unit": "%"},
      {"measurement": "persister cell viability", "setting": "MIA PaCa-2 persister", "value": 103, "unit": "%"}
    ]},
    {"smiles": "CC(=O)N[C@@H](CC(=O)O)C(=O)N[C@@H](CCC(=O)O)C(=O)N[C@H](C(=O)N[C@H](C=O)CC(=O)O)C(C)C", "note": "[Ac-DEVD-CHO (trifluoroacetate-salt)] (inhibitor concentration: 10µM)", "values": [
      {"measurement": "parental cell viability", "setting": "MIA PaCa-2 parental", "value": 102, "unit": "%"},
      {"measurement": "persister cell viability", "setting": "MIA PaCa-2 persister", "value": 96, "unit": "%"}
    ]},
    {"smiles": "CN(CCOc1ccc(CC2SC(=O)NC2=O)cc1)c1ccccn1", "note": "(stereo not drawn) [Rosiglitazone maleate] (inhibitor concentration: 3µM)", "values": [
      {"measurement": "parental cell viability", "setting": "MIA PaCa-2 parental", "value": 102, "unit": "%"},
      {"measurement": "persister cell viability", "setting": "MIA PaCa-2 persister", "value": 95.5, "unit": "%"}
    ]},
    {"smiles": "CCC(C)(C)C(=O)N(O)Cc1ccccc1", "note": "(inhibitor concentration: 30µM)", "values": [
      {"measurement": "parental cell viability", "setting": "MIA PaCa-2 parental", "value": 100, "unit": "%"},
      {"measurement": "persister cell viability", "setting": "MIA PaCa-2 persister", "value": 97.5, "unit": "%"}
    ]},
    {"smiles": "Nc1ccccc1NC(=O)c1ccc(CNC(=O)OCc2cccnc2)cc1", "note": "[Entinostat] (inhibitor concentration: 300nM)", "values": [
      {"measurement": "parental cell viability", "setting": "MIA PaCa-2 parental", "value": 103, "unit": "%"},
      {"measurement": "persister cell viability", "setting": "MIA PaCa-2 persister", "value": 10, "unit": "%"}
    ]}
  ]
}
